Measured values from the supplement of paper PMC12823440, “Inhibitors supercharge kinase turnover through native proteolytic circuits” (Nature, 2025).
Counter-ions that a name gives are not always drawn. Some of the results follow. The calls rarely recur for the same compound in another form.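 Kinases were expressed as nanoluciferase fusions in K562 cells and luminescence was read every 4 h between 2 and 18 h as percent of control, DMSO set to 100% and a positive control to 0%. A time point counts as decreased when the signal drops significantly (2 sigma). The hit call is the authors' own, does not follow from the count of time points alone, and its rule is not shown.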

Sequences of proteins named here, by UniProt entry; tags and fusion partners are left off. A change or cut given only in a name is not applied to a line headed by its entry.
UniProt P11362, whole entry, looked up: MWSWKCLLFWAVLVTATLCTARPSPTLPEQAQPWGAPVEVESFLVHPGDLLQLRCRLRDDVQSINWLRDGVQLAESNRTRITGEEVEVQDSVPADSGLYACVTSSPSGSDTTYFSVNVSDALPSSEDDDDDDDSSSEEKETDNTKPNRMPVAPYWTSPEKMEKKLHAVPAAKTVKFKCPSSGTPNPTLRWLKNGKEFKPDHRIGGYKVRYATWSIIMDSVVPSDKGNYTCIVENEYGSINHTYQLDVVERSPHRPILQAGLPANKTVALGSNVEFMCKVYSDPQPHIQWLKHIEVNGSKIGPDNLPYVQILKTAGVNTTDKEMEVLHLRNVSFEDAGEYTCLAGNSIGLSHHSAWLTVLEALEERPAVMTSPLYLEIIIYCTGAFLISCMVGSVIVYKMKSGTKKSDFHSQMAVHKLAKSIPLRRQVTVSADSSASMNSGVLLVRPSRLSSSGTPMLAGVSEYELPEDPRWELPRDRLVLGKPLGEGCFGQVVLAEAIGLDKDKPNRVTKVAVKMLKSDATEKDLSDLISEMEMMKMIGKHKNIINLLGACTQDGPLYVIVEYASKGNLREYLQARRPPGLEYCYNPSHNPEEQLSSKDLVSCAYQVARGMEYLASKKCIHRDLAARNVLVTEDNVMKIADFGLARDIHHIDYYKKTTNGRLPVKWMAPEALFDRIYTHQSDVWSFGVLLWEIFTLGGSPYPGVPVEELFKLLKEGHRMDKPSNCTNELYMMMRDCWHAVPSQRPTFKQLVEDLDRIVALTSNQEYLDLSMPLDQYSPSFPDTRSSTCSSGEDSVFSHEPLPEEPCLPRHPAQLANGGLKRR
UniProt P22607, whole entry, looked up: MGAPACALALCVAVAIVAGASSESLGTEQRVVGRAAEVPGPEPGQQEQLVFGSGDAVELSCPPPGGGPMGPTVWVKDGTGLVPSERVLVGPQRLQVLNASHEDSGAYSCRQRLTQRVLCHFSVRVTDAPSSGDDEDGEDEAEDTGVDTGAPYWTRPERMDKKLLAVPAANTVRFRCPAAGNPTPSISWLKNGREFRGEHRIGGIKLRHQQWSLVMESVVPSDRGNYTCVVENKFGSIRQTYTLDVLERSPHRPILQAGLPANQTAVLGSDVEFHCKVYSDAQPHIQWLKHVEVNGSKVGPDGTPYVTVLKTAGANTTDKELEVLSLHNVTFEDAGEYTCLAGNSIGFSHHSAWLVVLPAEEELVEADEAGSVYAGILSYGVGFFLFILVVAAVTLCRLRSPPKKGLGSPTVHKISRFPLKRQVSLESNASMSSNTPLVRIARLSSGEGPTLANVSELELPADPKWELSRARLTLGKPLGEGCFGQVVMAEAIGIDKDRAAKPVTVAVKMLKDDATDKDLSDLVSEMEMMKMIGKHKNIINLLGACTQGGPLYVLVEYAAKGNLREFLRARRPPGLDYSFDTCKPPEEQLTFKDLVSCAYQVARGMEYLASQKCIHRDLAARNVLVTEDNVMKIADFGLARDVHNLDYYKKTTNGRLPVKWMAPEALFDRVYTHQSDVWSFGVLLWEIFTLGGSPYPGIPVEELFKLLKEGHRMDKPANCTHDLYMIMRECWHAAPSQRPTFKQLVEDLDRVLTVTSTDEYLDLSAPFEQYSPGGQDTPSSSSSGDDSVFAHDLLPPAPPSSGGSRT
UniProt P36888, whole entry: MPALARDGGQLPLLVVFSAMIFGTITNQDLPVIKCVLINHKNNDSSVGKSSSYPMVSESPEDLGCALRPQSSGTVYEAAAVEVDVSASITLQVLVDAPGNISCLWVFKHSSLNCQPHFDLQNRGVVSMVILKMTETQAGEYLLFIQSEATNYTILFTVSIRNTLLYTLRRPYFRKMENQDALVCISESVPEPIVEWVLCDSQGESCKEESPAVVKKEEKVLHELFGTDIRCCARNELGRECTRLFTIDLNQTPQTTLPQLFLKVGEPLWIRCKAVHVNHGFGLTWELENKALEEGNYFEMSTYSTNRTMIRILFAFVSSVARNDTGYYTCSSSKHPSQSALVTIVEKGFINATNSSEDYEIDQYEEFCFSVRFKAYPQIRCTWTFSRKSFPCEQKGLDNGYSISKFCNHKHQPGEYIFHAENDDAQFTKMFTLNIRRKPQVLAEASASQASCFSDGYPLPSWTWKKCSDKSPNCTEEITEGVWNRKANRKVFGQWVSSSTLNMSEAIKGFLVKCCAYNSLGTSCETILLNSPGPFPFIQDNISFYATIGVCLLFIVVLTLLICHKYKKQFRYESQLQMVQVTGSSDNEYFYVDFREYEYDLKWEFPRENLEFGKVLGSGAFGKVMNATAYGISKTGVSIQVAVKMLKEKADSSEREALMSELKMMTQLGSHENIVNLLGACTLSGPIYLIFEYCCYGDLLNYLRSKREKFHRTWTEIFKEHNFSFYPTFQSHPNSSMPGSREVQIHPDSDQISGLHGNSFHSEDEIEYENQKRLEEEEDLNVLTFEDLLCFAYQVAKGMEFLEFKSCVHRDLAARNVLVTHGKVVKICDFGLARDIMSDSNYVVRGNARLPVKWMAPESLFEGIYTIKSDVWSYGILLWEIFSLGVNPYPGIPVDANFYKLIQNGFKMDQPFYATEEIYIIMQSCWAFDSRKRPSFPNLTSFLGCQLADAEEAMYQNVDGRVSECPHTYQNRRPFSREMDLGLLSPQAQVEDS
UniProt P06241, whole entry, looked up: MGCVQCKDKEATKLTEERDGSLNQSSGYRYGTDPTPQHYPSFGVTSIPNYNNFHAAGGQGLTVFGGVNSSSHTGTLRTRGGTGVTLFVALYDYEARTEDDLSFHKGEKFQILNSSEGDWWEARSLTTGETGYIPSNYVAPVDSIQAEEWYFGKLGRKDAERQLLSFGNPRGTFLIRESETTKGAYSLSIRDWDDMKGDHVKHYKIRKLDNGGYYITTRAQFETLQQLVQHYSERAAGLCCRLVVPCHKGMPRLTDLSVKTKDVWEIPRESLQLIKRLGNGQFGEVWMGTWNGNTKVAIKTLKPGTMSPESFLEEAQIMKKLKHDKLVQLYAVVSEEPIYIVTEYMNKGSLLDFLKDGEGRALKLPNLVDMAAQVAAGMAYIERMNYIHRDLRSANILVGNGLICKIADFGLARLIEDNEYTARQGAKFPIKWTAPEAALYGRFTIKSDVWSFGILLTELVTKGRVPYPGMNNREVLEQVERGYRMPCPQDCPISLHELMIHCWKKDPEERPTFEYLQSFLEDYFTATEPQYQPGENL
UniProt Q9Y616: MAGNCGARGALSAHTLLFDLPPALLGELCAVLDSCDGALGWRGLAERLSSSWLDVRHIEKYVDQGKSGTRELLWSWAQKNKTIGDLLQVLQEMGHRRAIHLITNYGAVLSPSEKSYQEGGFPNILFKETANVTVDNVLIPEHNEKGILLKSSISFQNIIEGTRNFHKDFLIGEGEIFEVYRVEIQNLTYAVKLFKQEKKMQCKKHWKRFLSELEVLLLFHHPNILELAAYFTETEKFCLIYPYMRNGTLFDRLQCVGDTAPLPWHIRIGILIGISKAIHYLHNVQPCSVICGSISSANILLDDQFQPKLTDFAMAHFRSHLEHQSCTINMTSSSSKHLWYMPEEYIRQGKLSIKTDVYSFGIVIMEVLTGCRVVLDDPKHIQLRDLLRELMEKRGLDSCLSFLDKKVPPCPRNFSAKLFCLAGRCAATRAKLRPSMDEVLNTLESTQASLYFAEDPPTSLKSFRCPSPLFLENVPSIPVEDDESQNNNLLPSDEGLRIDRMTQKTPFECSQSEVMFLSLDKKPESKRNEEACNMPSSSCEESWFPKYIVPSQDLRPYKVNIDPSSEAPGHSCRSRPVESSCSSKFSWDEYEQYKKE
UniProt P23458: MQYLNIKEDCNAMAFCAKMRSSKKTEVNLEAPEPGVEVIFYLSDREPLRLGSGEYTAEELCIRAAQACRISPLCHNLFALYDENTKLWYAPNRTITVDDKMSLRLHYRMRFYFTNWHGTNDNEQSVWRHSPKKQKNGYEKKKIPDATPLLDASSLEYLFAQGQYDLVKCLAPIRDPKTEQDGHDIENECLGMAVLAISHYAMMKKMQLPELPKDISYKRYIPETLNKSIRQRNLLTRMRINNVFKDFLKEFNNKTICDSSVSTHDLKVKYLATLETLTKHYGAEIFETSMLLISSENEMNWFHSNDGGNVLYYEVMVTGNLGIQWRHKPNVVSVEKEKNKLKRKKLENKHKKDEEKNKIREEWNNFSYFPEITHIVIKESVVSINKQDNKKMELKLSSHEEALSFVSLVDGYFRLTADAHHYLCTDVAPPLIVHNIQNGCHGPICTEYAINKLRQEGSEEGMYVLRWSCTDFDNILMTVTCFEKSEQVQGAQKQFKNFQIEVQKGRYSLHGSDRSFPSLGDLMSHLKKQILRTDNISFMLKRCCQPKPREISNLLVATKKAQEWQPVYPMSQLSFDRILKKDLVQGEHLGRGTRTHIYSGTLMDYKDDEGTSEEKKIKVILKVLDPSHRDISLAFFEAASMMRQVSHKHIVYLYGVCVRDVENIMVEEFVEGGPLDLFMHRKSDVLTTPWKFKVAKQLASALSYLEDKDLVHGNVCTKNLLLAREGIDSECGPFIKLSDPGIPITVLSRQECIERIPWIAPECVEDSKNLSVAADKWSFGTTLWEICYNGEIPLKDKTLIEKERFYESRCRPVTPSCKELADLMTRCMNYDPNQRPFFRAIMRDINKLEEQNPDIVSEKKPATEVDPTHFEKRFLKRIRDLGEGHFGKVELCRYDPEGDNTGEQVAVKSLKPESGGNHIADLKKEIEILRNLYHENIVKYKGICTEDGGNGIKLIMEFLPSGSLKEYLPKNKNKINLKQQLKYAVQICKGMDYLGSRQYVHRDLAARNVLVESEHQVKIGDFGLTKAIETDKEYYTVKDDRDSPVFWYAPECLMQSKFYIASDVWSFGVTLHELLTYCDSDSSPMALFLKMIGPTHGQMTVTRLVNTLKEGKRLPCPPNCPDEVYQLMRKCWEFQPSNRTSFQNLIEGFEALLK
UniProt P06239: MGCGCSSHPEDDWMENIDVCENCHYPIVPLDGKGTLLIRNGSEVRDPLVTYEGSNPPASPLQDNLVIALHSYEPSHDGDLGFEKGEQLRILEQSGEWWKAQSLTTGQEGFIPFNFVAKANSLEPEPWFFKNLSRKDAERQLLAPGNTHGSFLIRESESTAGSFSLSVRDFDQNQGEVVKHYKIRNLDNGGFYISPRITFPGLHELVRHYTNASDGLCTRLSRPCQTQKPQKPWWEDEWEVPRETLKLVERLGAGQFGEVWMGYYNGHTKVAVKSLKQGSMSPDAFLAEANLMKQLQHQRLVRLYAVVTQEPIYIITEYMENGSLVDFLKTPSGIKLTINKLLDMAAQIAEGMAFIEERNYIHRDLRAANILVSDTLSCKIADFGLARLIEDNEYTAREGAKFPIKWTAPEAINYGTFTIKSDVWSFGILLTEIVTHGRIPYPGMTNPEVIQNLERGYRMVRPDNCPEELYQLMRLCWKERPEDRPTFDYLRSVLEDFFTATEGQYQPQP
UniProt Q12851: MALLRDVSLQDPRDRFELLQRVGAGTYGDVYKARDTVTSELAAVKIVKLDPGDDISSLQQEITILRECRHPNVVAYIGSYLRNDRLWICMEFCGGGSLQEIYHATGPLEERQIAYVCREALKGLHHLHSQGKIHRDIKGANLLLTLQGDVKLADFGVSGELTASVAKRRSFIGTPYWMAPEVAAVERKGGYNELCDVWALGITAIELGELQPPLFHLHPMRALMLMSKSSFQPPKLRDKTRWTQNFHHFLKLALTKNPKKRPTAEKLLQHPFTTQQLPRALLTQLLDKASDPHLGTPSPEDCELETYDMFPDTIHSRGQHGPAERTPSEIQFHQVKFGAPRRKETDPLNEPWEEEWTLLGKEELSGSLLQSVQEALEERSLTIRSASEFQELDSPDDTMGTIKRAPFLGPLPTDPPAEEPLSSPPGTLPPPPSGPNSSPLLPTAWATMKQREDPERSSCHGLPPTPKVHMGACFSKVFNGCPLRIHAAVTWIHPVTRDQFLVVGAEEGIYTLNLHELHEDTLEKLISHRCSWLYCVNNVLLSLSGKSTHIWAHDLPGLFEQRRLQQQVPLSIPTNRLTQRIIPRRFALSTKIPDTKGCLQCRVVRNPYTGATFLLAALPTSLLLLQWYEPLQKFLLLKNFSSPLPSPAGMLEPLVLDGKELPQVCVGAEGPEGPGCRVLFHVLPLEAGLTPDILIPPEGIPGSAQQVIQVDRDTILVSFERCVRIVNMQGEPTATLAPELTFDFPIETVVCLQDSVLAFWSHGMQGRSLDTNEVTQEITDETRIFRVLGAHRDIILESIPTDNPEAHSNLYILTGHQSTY

Experiments:
Assay in all cases: kinase-Nluc reporter destabilization hit call (1 = scored as downregulated) (binary); higher = compound decreases kinase abundance
Settings in all cases: K562, 2-18 h
[1] = biological target: ERN1 (UniProt O75460)
[2] = biological target: FGFR1 (UniProt P11362)
[3] = biological target: FGFR2 (UniProt P21802)
[4] = biological target: FGFR3 (UniProt P22607)
[5] = biological target: FGR (UniProt P09769)
[6] = biological target: FLT3 (UniProt P36888)
[7] = biological target: FYN (UniProt P06241)
[8] = biological target: GSK3A (UniProt P49840)
[9] = biological target: HER2 (UniProt P04626)
[10] = biological target: INSRR (UniProt P14616)
[11] = biological target: IRAK3 (UniProt Q9Y616)
[12] = biological target: JAK1 (UniProt P23458)
[13] = biological target: LCK (UniProt P06239)
[14] = biological target: LIMK1 (UniProt P53667)
[15] = biological target: LIMK2 (UniProt P53671)
[16] = biological target: LMTK2 (UniProt Q8IWU2)
[17] = biological target: LYN (UniProt P07948)
[18] = biological target: MAP2K1 (UniProt Q02750)
[19] = biological target: MAP2K2 (UniProt P36507)
[20] = biological target: MAP4K2 (UniProt Q12851)

Measured: kinase-Nluc reporter destabilization hit call

Cc1nc2ccc(-n3c(-c4nonc4N)nc4cnccc43)cc2[nH]1
inactive: [1]; 10 µM 0 | [2]; 10 µM 0 | [3]; 10 µM 0 | [4]; 10 µM 0 | [5]; 10 µM 0 | [6]; 10 µM 0 | [7]; 10 µM 0 | [8]; 10 µM 0 | [9]; 10 µM 0 | [10]; 10 µM 0 | [11]; 10 µM 0 | [12]; 10 µM 0 | [13]; 10 µM 0 | [14]; 10 µM 0 | [15]; 10 µM 0 | [16]; 10 µM 0 | [17]; 10 µM 0 | [18]; 10 µM 0 | [19]; 10 µM 0 | [20]; 10 µM 0

COc1cc(/C=C/C(=O)O)ccc1O [Ferulic acid (sodium)]
inactive: [1]; 10 µM 0 | [2]; 10 µM 0 | [3]; 10 µM 0 | [4]; 10 µM 0 | [5]; 10 µM 0 | [6]; 10 µM 0 | [7]; 10 µM 0 | [8]; 10 µM 0 | [9]; 10 µM 0 | [10]; 10 µM 0 | [11]; 10 µM 0 | [12]; 10 µM 0 | [13]; 10 µM 0 | [14]; 10 µM 0 | [15]; 10 µM 0 | [16]; 10 µM 0 | [17]; 10 µM 0 | [18]; 10 µM 0 | [19]; 10 µM 0 | [20]; 10 µM 0

C=CC(=O)Nc1cc2c(Nc3ccc(F)c(Cl)c3)ncnc2cc1C#CC(C)(C)N1CCN(C)CC1
active: [9]; 2.5 µM 1 | [14]; 2.5 µM 1 | [15]; 2.5 µM 1
inactive: [1]; 2.5 µM 0 | [2]; 2.5 µM 0 | [3]; 2.5 µM 0 | [4]; 2.5 µM 0 | [5]; 2.5 µM 0 | [6]; 2.5 µM 0 | [7]; 2.5 µM 0 | [8]; 2.5 µM 0 | [10]; 2.5 µM 0 | [11]; 2.5 µM 0 | [12]; 2.5 µM 0 | [13]; 2.5 µM 0 | [16]; 2.5 µM 0 | [17]; 2.5 µM 0 | [18]; 2.5 µM 0 | [19]; 2.5 µM 0 | [20]; 2.5 µM 0

C[C@H](CCC(=O)NCCS(=O)(=O)O)[C@H]1CC[C@H]2[C@@H]3[C@@H](O)C[C@@H]4C[C@H](O)CC[C@]4(C)[C@H]3CC[C@]12C [Tauroursodeoxycholate (sodium)]
inactive: [1]; 10 µM 0 | [2]; 10 µM 0 | [3]; 10 µM 0 | [4]; 10 µM 0 | [5]; 10 µM 0 | [6]; 10 µM 0 | [7]; 10 µM 0 | [8]; 10 µM 0 | [9]; 10 µM 0 | [10]; 10 µM 0 | [11]; 10 µM 0 | [12]; 10 µM 0 | [13]; 10 µM 0 | [14]; 10 µM 0 | [15]; 10 µM 0 | [16]; 10 µM 0 | [17]; 10 µM 0 | [18]; 10 µM 0 | [19]; 10 µM 0 | [20]; 10 µM 0

CCCC(=O)Nc1ncnc2c1ncn2[C@@H]1O[C@@H]2COP(=O)(O)O[C@H]2[C@H]1OC(=O)CCC [Bucladesine (calcium)]
inactive: [1]; 10 µM 0 | [2]; 10 µM 0 | [3]; 10 µM 0 | [4]; 10 µM 0 | [5]; 10 µM 0 | [6]; 10 µM 0 | [7]; 10 µM 0 | [8]; 10 µM 0 | [9]; 10 µM 0 | [10]; 10 µM 0 | [11]; 10 µM 0 | [12]; 10 µM 0 | [13]; 10 µM 0 | [14]; 10 µM 0 | [15]; 10 µM 0 | [16]; 10 µM 0 | [17]; 10 µM 0 | [18]; 10 µM 0 | [19]; 10 µM 0 | [20]; 10 µM 0

N#CC[C@H](C1CCCC1)n1cc(-c2ncnc3[nH]ccc23)cn1 [Ruxolitinib (phosphate)]
inactive: [1]; 10 µM 0 | [2]; 10 µM 0 | [3]; 10 µM 0 | [4]; 10 µM 0 | [5]; 10 µM 0 | [6]; 10 µM 0 | [7]; 10 µM 0 | [8]; 10 µM 0 | [9]; 10 µM 0 | [10]; 10 µM 0 | [11]; 10 µM 0 | [12]; 10 µM 0 | [13]; 10 µM 0 | [14]; 10 µM 0 | [15]; 10 µM 0 | [16]; 10 µM 0 | [17]; 10 µM 0 | [18]; 10 µM 0 | [19]; 10 µM 0 | [20]; 10 µM 0

CCc1nc(C(N)=O)c(Nc2ccc(N3CCC(N4CCN(C)CC4)CC3)c(OC)c2)nc1NC1CCOCC1 [Gilteritinib]
inactive: [1]; 2 µM 0 | [2]; 2 µM 0 | [3]; 2 µM 0 | [4]; 2 µM 0 | [5]; 2 µM 0 | [6]; 2 µM 0 | [7]; 2 µM 0 | [8]; 2 µM 0 | [9]; 2 µM 0 | [10]; 2 µM 0 | [11]; 2 µM 0 | [12]; 2 µM 0 | [13]; 2 µM 0 | [14]; 2 µM 0 | [15]; 2 µM 0 | [16]; 2 µM 0 | [17]; 2 µM 0 | [18]; 2 µM 0 | [19]; 2 µM 0 | [20]; 2 µM 0

COc1ccc(S(=O)(=O)N(CCO)c2ccccc2CN(C)C/C=C/c2ccc(Cl)cc2)cc1 [KN-93 (hydrochloride)]
inactive: [1]; 2.5 µM 0 | [2]; 2.5 µM 0 | [3]; 2.5 µM 0 | [4]; 2.5 µM 0 | [5]; 2.5 µM 0 | [6]; 2.5 µM 0 | [7]; 2.5 µM 0 | [8]; 2.5 µM 0 | [9]; 2.5 µM 0 | [10]; 2.5 µM 0 | [11]; 2.5 µM 0 | [12]; 2.5 µM 0 | [13]; 2.5 µM 0 | [14]; 2.5 µM 0 | [15]; 2.5 µM 0 | [16]; 2.5 µM 0 | [17]; 2.5 µM 0 | [18]; 2.5 µM 0 | [19]; 2.5 µM 0 | [20]; 2.5 µM 0

CN1CCCN(C(=O)c2cccc(-c3ccc(/C=C4/C(=O)Nc5ccc(Cl)cc54)o3)c2)CC1
inactive: [1]; 2.5 µM 0 | [2]; 2.5 µM 0 | [3]; 2.5 µM 0 | [4]; 2.5 µM 0 | [5]; 2.5 µM 0 | [6]; 2.5 µM 0 | [7]; 2.5 µM 0 | [8]; 2.5 µM 0 | [9]; 2.5 µM 0 | [10]; 2.5 µM 0 | [11]; 2.5 µM 0 | [12]; 2.5 µM 0 | [13]; 2.5 µM 0 | [14]; 2.5 µM 0 | [15]; 2.5 µM 0 | [16]; 2.5 µM 0 | [17]; 2.5 µM 0 | [18]; 2.5 µM 0 | [19]; 2.5 µM 0 | [20]; 2.5 µM 0
